# Screening data

Data taken from PubChem BioAssay AID1053133, deposited by Broad Institute (2014).

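Plate-reader measure of the Venus reporter marking one vaccinia stage in infected cells (the cell line is not named here); read time unknown.
The test concentration is not given here.
Percent change in Venus reporter signal; lower (more negative) values mean stronger inhibition of that viral stage.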

Values are in %.
The controls that fix the scale are not given here.
Common to all entries: measured here: Venus reporter, other viral stage.
This is a side read-out of the assay, for part of the compounds, not drawn at random.

| SMILES | activity change (Venus) (%) |
|---|---|
| `COc1ccc(CN(C)C[C@@H]2Oc3c(NC(=O)c4ccc(-c5nccs5)cc4)cccc3C(=O)N([C@@H](C)CO)C[C@H]2C)cc1` | -64.71 |
| `CN1C(=O)c2cc(NC(=O)c3cccc(F)c3)ccc2OC[C@@H]2O[C@@H](CC(=O)N3CCc4ccccc4C3)CC[C@@H]21` | -26.27 |
| `O=C(Nc1ccccc1)N1CCCCN2[C@H](CO)[C@@H](c3ccc(C#Cc4ccccc4)cc3)[C@@H]2C1` | -20.31 |
| `O=C(C[C@@H]1CC[C@H]2[C@@H](COC[C@H](O)CN2Cc2ccc(Cl)cc2)O1)NCc1ccccc1Cl` | -29.06 |
| `COc1ccc(S(=O)(=O)Nc2ccc3c(c2)C(=O)N([C@H](C)CO)C[C@@H](C)[C@H](CN(C)S(=O)(=O)c2ccc(Cl)cc2)OCCCC[C@@H](C)O3)cc1` | -45.75 |
| `C[C@H]1CN([C@@H](C)CO)C(=O)c2cccc(NC(=O)Nc3ccc(F)cc3)c2O[C@H]1CN(C)C(=O)NC1CCCCC1` | -38.96 |
| `Cc1ccc(S(=O)(=O)Nc2cccc3c2O[C@@H](CN(C)C(=O)Nc2ccc(C(F)(F)F)cc2)[C@@H](C)CN([C@H](C)CO)C3=O)cc1` | -4.609 |
| `C[C@H]1CN([C@@H](C)CO)C(=O)c2c(c3ccccc3n2C)-c2ccccc2CO[C@@H]1CN(C)S(=O)(=O)c1ccc(F)cc1` | -45.11 |
| `COc1ccc(S(=O)(=O)Nc2ccc3c(c2)C(=O)N([C@@H](C)CO)C[C@@H](C)[C@@H](CN(C)Cc2ccc4c(c2)OCO4)OCCCC[C@@H](C)O3)cc1` | -63.84 |
| `CO[C@@H]1CN(C)C(=O)c2cc(NS(=O)(=O)c3ccc(-c4ccccc4)cc3)ccc2OC[C@@H](C)NC[C@@H]1C` | -24.06 |
| `COCC(=O)Nc1ccc2c(c1)[C@@H]1C[C@H](CC(=O)NCc3ccccn3)O[C@@H](CO)[C@@H]1O2` | -34.55 |
| `C[C@H](CO)N1C[C@H](C)[C@H](CN(C)C(=O)c2cccc(F)c2)Oc2cc(-c3cccc(F)c3)ccc2S1(=O)=O` | -35 |
| `Cc1ccc(-c2ccc(C3[C@@H]4CN(S(=O)(=O)c5ccc(C)cc5)C[C@H]3N4)cc2)cc1` (some centres undefined) | -49.72 |
| `CC(C)CC#Cc1ccc2c(c1)O[C@@H](CN(C)C(=O)Cc1ccncc1)[C@@H](C)CN([C@@H](C)CO)S2(=O)=O` | -39.39 |
| `CCCC#Cc1cnc2c(c1)C(=O)N([C@@H](C)CO)C[C@H](C)[C@@H](CN(C)S(=O)(=O)c1cccc(OC)c1)O2` | -40.67 |
| `N#C[C@H]1[C@@H](c2ccc(C#Cc3ccccc3F)cc2)[C@H](CO)N1C(=O)C1CC1` | -29.23 |
| `O=C(C[C@@H]1CC[C@@H]2[C@H](COC[C@H](O)CN2Cc2ccc(Oc3ccccc3)cc2)O1)N1CCN(c2ccccc2)CC1` | -55.22 |
| `CN1C(=O)c2cc(NC(=O)c3ccc(F)c(F)c3)ccc2OC[C@@H]2O[C@@H](CC(=O)N[C@@H]3CCN(Cc4ccccc4)C3)CC[C@H]21` | -28.95 |
| `O=C(C[C@@H]1CC[C@@H]2[C@H](COC[C@H](O)CN2S(=O)(=O)c2ccc(F)cc2)O1)NCc1ccc(Cl)c(Cl)c1` | -32.95 |
| `N#C[C@H]1[C@H](c2ccc(C#CC3CCCC3)cc2)[C@@H](CO)N1C(=O)Nc1ccc(F)cc1` | -51.92 |
| `O=C(c1ccc2c(c1)OCO2)N1CC(=O)N2[C@@H](CO)[C@@H](c3ccc(C#CC4CCCC4)cc3)[C@@H]2C1` | -45.4 |
| `O=C(C[C@H]1CC[C@@H]2[C@H](COC[C@H](O)CN2Cc2ccc(Cl)cc2)O1)NCCc1ccccc1` | -15.18 |
| `Cc1ccccc1S(=O)(=O)N1CCCCN2[C@@H](CO)[C@@H](c3ccc(-c4cccc(F)c4)cc3)[C@@H]2C1` | -71.41 |
| `Cc1ccc(S(=O)(=O)Nc2ccc3c(c2)C(=O)N([C@H](C)CO)C[C@@H](C)[C@@H](CN(C)C(=O)C2CCCCC2)OCCCC[C@@H](C)O3)cc1` | -70.67 |
| `COc1cccc(S(=O)(=O)Nc2ccc3c(c2)C(=O)N(C)[C@H]2CC[C@H](CC(=O)Nc4ccc(C(C)C)cc4)O[C@@H]2CO3)c1` | -39.41 |
| `COc1ccccc1C#Cc1ccc2c(c1)[C@H]1[C@H](CCN1C(=O)c1ccc(F)cc1)[C@@H](CO)N2` | -35.33 |
| `C[C@@H]1CCCCO[C@@H](CN(C)CC2CCCCC2)[C@H](C)CN([C@H](C)CO)C(=O)c2cc(NC(=O)Nc3ccc4c(c3)OCO4)ccc2O1` | -27.49 |
| `O=C(C[C@H]1CC[C@@H]2[C@H](COC[C@@H](O)CN2Cc2cccc(C(F)(F)F)c2)O1)NCCc1ccccc1` | -34.07 |
| `CO[C@H](CN(C)S(=O)(=O)c1cccc(Cl)c1)[C@@H](C)CN([C@H](C)CO)S(=O)(=O)c1cccc(Cl)c1` | -22.06 |
| `C[C@H]1CCCCO[C@@H](CN(C)C(=O)c2ccccc2)[C@@H](C)CN([C@@H](C)CO)C(=O)c2cc(NC(=O)NC3CCCCC3)ccc2O1` | -26.43 |
| `CCCNC(=O)N1CC2(CCN(CC3CCCCC3)CC2)c2c([nH]c3cc(OC)ccc23)[C@H]1CO` | -37.4 |
| `CC(C)CC#Cc1ccc([C@H]2[C@H]3CN(C(=O)NC4CCCC4)CC(=O)N3[C@H]2CO)cc1` | -69.81 |
| `COc1ccc(-c2ccc3c(c2)[C@H]2[C@H](CCN2S(=O)(=O)c2ccc(OC)cc2)[C@H](CO)N3C)cc1` | -54.08 |

3 of the entries, repeated:

* COCC(=O)Nc1ccc2c(c1)[C@@H]1C[C@H](CC(=O)NCc3ccccn3)O[C@@H](CO)[C@@H]1O2 | activity change (Venus) -34.55%
* CN1C(=O)c2cc(NC(=O)c3ccc(F)c(F)c3)ccc2OC[C@@H]2O[C@@H](CC(=O)N[C@@H]3CCN(Cc4ccccc4)C3)CC[C@H]21 | activity change (Venus) -28.95%
* C[C@H](CO)N1C[C@H](C)[C@H](CN(C)C(=O)c2cccc(F)c2)Oc2cc(-c3cccc(F)c3)ccc2S1(=O)=O | activity change (Venus) -35%